{"source": "the supplement of paper PMC8728848", "binders": {"B1": {"name": "Aap lectin (Staphylococcus epidermidis) (protein)", "chain": "VNLNYSSPFMSLLSMPADSSSNNTKNTIDIPPTTVKGRDNYDFYGRVDIESNPTDLNATNLTRYNYGQPPGTTTAGAVQFKNQVSFDKDFDFNIRVANNRQSNTTGADGWGFMFSKKDGDDFLKNGGILREKGTPSAAGFRIDTGYYNNDPLDKIQKQAGQGYRGYGTFVKNDSQGNTSKVGSGTPSTDFLNYADNTTNDLDGKFHGQKLNNVNLKYNASNQTFTATYAGKTWTATLSELGLSPTDSYNFLVTSS"}}, "assay_in_all_cases": "glycan array binding signal (z-score within array); higher = stronger binding", "conditions_in_all_cases": "glycan notation: IUPAC condensed, linker removed", "key": {"Fuc(a1-2)Gal": {"biological_target": "Fuc(a1-2)Gal", "outline": "(§1)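 Columns mapping to the same glycan were averaged after glycan names were converted to IUPAC-condensed notation. The data come from 3228 arrays in the Consortium for Functional Glycomics database, limited to those with an available protein sequence. Binding is reported as a within-array Z-score averaged across arrays of one protein sequence and across linkers.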"}, "Fuc(a1-2)Gal(b1-3)GalNAc": {"biological_target": "Fuc(a1-2)Gal(b1-3)GalNAc", "outline": "as §1"}, "[1]": {"biological_target": "Fuc(a1-2)Gal(b1-3)GalNAc(a1-3)[Fuc(a1-2)]Gal(b1-4)Glc", "outline": "as §1"}, "[2]": {"biological_target": "Fuc(a1-2)Gal(b1-3)GalNAc(a1-3)[Fuc(a1-2)]Gal(b1-4)GlcNAc", "outline": "as §1"}, "[3]": {"biological_target": "Fuc(a1-2)Gal(b1-3)GalNAc(b1-3)Gal", "outline": "as §1"}, "[4]": {"biological_target": "Fuc(a1-2)Gal(b1-3)GalNAc(b1-3)Gal(a1-4)Gal(b1-4)Glc", "outline": "as §1"}, "[5]": {"biological_target": "Fuc(a1-2)Gal(b1-3)GalNAc(b1-4)[Neu5Ac(a2-3)]Gal(b1-4)Glc", "outline": "as §1"}, "Fuc(a1-2)Gal(b1-3)GlcNAc": {"biological_target": "Fuc(a1-2)Gal(b1-3)GlcNAc", "outline": "as §1"}, "[6]": {"biological_target": "Fuc(a1-2)Gal(b1-3)GlcNAc(b1-2)Man(a1-3)[Fuc(a1-2)Gal(b1-3)GlcNAc(b1-2)Man(a1-6)]Man(b1-4)GlcNAc(b1-4)GlcNAc", "outline": "as §1"}, "[7]": {"biological_target": "Fuc(a1-2)Gal(b1-3)GlcNAc(b1-2)Man(a1-3)[Fuc(a1-2)Gal(b1-3)GlcNAc(b1-2)Man(a1-6)]Man(b1-4)GlcNAc(b1-4)[Fuc(a1-6)]GlcNAc", "outline": "as §1"}, "[8]": {"biological_target": "Fuc(a1-2)Gal(b1-3)GlcNAc(b1-3)Gal(b1-4)Glc", "outline": "as §1"}, "[9]": {"biological_target": "Fuc(a1-2)Gal(b1-3)GlcNAc(b1-3)GalNAc", "outline": "as §1"}, "[10]": {"biological_target": "Fuc(a1-2)Gal(b1-3)GlcNAc(b1-3)[Fuc(a1-2)Gal(b1-3)GlcNAc(b1-6)]GalNAc", "outline": "as §1"}, "[11]": {"biological_target": "Fuc(a1-2)Gal(b1-3)GlcNAc(b1-3)[Gal(b1-4)GlcNAc(b1-6)]Gal(b1-4)Glc", "outline": "as §1"}, "[12]": {"biological_target": "Fuc(a1-2)Gal(b1-3)GlcNAc(b1-3)[Neu5Ac(a2-6)Gal(b1-4)GlcNAc(b1-6)]Gal(b1-4)Glc", "outline": "as §1"}, "[13]": {"biological_target": "Fuc(a1-2)Gal(b1-3)GlcNAc6S", "outline": "as §1"}, "[14]": {"biological_target": "Fuc(a1-2)Gal(b1-3)[Fuc(a1-4)]GlcNAc", "outline": "as §1"}, "[15]": {"biological_target": "Fuc(a1-2)Gal(b1-3)[Fuc(a1-4)]GlcNAc(b1-2)Man(a1-3)[Fuc(a1-2)Gal(b1-3)[Fuc(a1-4)]GlcNAc(b1-2)Man(a1-3)]Man(b1-4)GlcNAc(b1-4)GlcNAc", "outline": "as §1"}, "[16]": {"biological_target": "Fuc(a1-2)Gal(b1-3)[Fuc(a1-4)]GlcNAc(b1-2)Man(a1-3)[Fuc(a1-2)Gal(b1-3)[Fuc(a1-4)]GlcNAc(b1-2)Man(a1-6)]Man(b1-4)GlcNAc(b1-4)[Fuc(a1-6)]GlcNAc(b1-4)[Fuc(a1-6)]GlcNAc", "outline": "as §1"}, "[17]": {"biological_target": "Fuc(a1-2)Gal(b1-3)[Fuc(a1-4)]GlcNAc(b1-3)[Fuc(a1-3)[Gal(b1-4)]GlcNAc(b1-6)]Gal(b1-4)Glc", "outline": "as §1"}, "[18]": {"biological_target": "Fuc(a1-2)Gal(b1-3)[Fuc(a1-4)]GlcNAc(b1-3)[Gal(b1-4)GlcNAc(b1-6)]Gal(b1-4)Glc", "outline": "as §1"}, "Fuc(a1-2)Gal(b1-4)Glc": {"biological_target": "Fuc(a1-2)Gal(b1-4)Glc", "outline": "as §1"}, "Fuc(a1-2)Gal(b1-4)Glc6S": {"biological_target": "Fuc(a1-2)Gal(b1-4)Glc6S", "outline": "as §1"}, "Fuc(a1-2)Gal(b1-4)GlcNAc": {"biological_target": "Fuc(a1-2)Gal(b1-4)GlcNAc", "outline": "as §1"}, "[19]": {"biological_target": "Fuc(a1-2)Gal(b1-4)GlcNAc(b1-2)Man", "outline": "as §1"}, "[20]": {"biological_target": "Fuc(a1-2)Gal(b1-4)GlcNAc(b1-2)Man(a1-3)[Fuc(a1-2)Gal(b1-4)GlcNAc(b1-2)Man(a1-6)]Man(b1-4)GlcNAc(b1-4)GlcNAc", "outline": "as §1"}, "[21]": {"biological_target": "Fuc(a1-2)Gal(b1-4)GlcNAc(b1-2)Man(a1-3)[Fuc(a1-2)Gal(b1-4)GlcNAc(b1-2)Man(a1-6)]Man(b1-4)GlcNAc(b1-4)[Fuc(a1-6)]GlcNAc", "outline": "as §1"}, "[22]": {"biological_target": "Fuc(a1-2)Gal(b1-4)GlcNAc(b1-2)[Fuc(a1-2)Gal(b1-4)GlcNAc(b1-4)]Man(a1-3)[Fuc(a1-2)Gal(b1-4)GlcNAc(b1-2)Man(a1-6)]Man(b1-4)GlcNAc(b1-4)GlcNAc", "outline": "as §1"}, "[23]": {"biological_target": "Fuc(a1-2)Gal(b1-4)GlcNAc(b1-3)Gal(b1-4)GlcNAc", "outline": "as §1"}, "[24]": {"biological_target": "Fuc(a1-2)Gal(b1-4)GlcNAc(b1-3)Gal(b1-4)GlcNAc(b1-2)Man(a1-3)[Fuc(a1-2)Gal(b1-4)GlcNAc(b1-3)Gal(b1-4)GlcNAc(b1-2)Man(a1-6)]Man(b1-4)GlcNAc(b1-4)GlcNAc", "outline": "as §1"}}, "note": "This is one part of the list."}
{"binder": "B1", "values": [{"measurement": "glycan array binding signal (z-score)", "setting": "Fuc(a1-2)Gal", "value": 1.06}, {"measurement": "glycan array binding signal (z-score)", "setting": "Fuc(a1-2)Gal(b1-3)GalNAc", "value": -0.871}, {"measurement": "glycan array binding signal (z-score)", "setting": "[1]", "value": -0.002}, {"measurement": "glycan array binding signal (z-score)", "setting": "[2]", "value": -0.431}, {"measurement": "glycan array binding signal (z-score)", "setting": "[3]", "value": -0.751}, {"measurement": "glycan array binding signal (z-score)", "setting": "[4]", "value": 0.358}, {"measurement": "glycan array binding signal (z-score)", "setting": "[5]", "value": -0.694}, {"measurement": "glycan array binding signal (z-score)", "setting": "Fuc(a1-2)Gal(b1-3)GlcNAc", "value": -0.737}, {"measurement": "glycan array binding signal (z-score)", "setting": "[6]", "value": 1.49}, {"measurement": "glycan array binding signal (z-score)", "setting": "[7]", "value": 2.87}, {"measurement": "glycan array binding signal (z-score)", "setting": "[8]", "value": -0.68}, {"measurement": "glycan array binding signal (z-score)", "setting": "[9]", "value": -0.829}, {"measurement": "glycan array binding signal (z-score)", "setting": "[10]", "value": 1.2}, {"measurement": "glycan array binding signal (z-score)", "setting": "[11]", "value": -0.875}, {"measurement": "glycan array binding signal (z-score)", "setting": "[12]", "value": 0.015}, {"measurement": "glycan array binding signal (z-score)", "setting": "[13]", "value": -0.08}, {"measurement": "glycan array binding signal (z-score)", "setting": "[14]", "value": -0.851}, {"measurement": "glycan array binding signal (z-score)", "setting": "[15]", "value": 1.16}, {"measurement": "glycan array binding signal (z-score)", "setting": "[16]", "value": -0.291}, {"measurement": "glycan array binding signal (z-score)", "setting": "[17]", "value": 1.1}, {"measurement": "glycan array binding signal (z-score)", "setting": "[18]", "value": 0.218}, {"measurement": "glycan array binding signal (z-score)", "setting": "Fuc(a1-2)Gal(b1-4)Glc", "value": 2.43}, {"measurement": "glycan array binding signal (z-score)", "setting": "Fuc(a1-2)Gal(b1-4)Glc6S", "value": 0.519}, {"measurement": "glycan array binding signal (z-score)", "setting": "Fuc(a1-2)Gal(b1-4)GlcNAc", "value": -0.831}, {"measurement": "glycan array binding signal (z-score)", "setting": "[19]", "value": -0.085}, {"measurement": "glycan array binding signal (z-score)", "setting": "[20]", "value": -0.352}, {"measurement": "glycan array binding signal (z-score)", "setting": "[21]", "value": -0.829}, {"measurement": "glycan array binding signal (z-score)", "setting": "[22]", "value": -0.732}, {"measurement": "glycan array binding signal (z-score)", "setting": "[23]", "value": -0.688}, {"measurement": "glycan array binding signal (z-score)", "setting": "[24]", "value": 0.261}]}
